Reference: patent US6890920B2, “Quaternary ammonium compounds” (Pharmacia & Upjohn Company, priority 1992, dated 2005)
At least one compound was matched to its structure with a doubt left.

Assay: Treatment of patients with asthma (Examples C, D, E)
Assay type: in vivo, human
Settings: person, severe asthma, morning peak flow 5 l/sec before; powder 6 mg once a day; after a week

## Cc1ccc(O)c([C@H](CC[N+](C)(C(C)C)C(C)C)c2ccccc2)c1.[Br-] [Example 3]
  peak flow: 9 L/s
